The filed quantity is “Percent Effect” (%). How 0% and 100% were set is not recorded. Most values in the screen are low, and negative values occur. Compounds were drawn at random from those tested, without regard to their results.

A: 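Whole-cell growth test on Mycobacterium tuberculosis, read after 3 days in glucose-containing 7H9 medium; the read-out is not stated. Compounds at 500 µM. Higher reads as more growth inhibition (inferred: compounds with an IC50 in retests scored well above the rest). Size under these conditions: about 18,000 compounds, about 1,400 of them at 50% or above in at least one test.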
B: 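Phenotypic screen: M. tuberculosis growth, cholesterol and DPPC medium, 4 days; the read-out is not stated. Tested at 500 µM. Higher reads as more growth inhibition (inferred: compounds with an IC50 in retests scored well above the rest). Of about 18,000 compounds tested this way, about 900 (5%) reached 50% or more in at least one test.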

compound,A,B
COC(C)(C)C(=O)Nc1ncccc1Cl,8.128,2.936
O=S(=O)(c1ccc(CN2CCC[C@H]2CO)cc1)C(F)F,35.39,12.67
CCOc1ccc(OCC)c(NC(=O)CN)c1,13.66,13.38
CNc1cccnc1C#N,7.156,6.136
CCOCCCNC(=O)Nc1nnc2ccccn12,5.158,-2.398
COCCN1CCC(NC(=O)Cc2ccccc2O)C1 (stereo not shown),4.336,-0.5476
NC(=O)N1CCCN(CC2CCCC2)CC1,15.55,8.807
Brc1cnn(CC2CCNCC2)c1,20.95,-0.9193
COC(=O)Cc1ccc(-n2cnnn2)cc1,3.812,-9.865
CC(CN)CC(F)(F)F (stereo not shown),7.112,0.4962
CCS(=O)(=O)CC(C)Nc1nccnc1C#N (stereo not shown),5.454,-5.068
CC(=O)N(Cc1noc(C2CC2)n1)C1CCNC1 (stereo not shown),7.461,0.8846
CCCOC(C)C(=O)NCCc1noc(CO)n1 (stereo not shown),8.412,8.756
COc1ccc2c(c1)OCC(CNC(=O)C(C)(C)N)C2 (stereo not shown),35.5,22.59
CC(C)NC(=O)CN(C)C(=O)c1cn2ccccc2n1,3.06,2.51
O=C(c1cncc(F)c1)N1CC(N2CCCCC2)C1,34.11,33.56
COc1cc(CNc2ccc(CO)cn2)cc(OC)c1,38.87,41.4
CN(C)C(CNC(=O)NCc1cc[nH]n1)c1cccs1 (stereo not shown),19.8,-1.762
CN(Cc1ccccc1)C1(CO)CCC1,-4.612,-6.601
COc1ccccc1CN(C)C(=O)Cn1cc(Br)cn1,-1.387,-3.299
CC(Nc1ccc(OC(F)F)cn1)c1ccncc1 (stereo not shown),72.14,82.32
O=C(CCc1cc(Cl)cs1)NCCN1CCOCC1,13.77,5.756
COc1ccc(NC(=O)NCc2ccc(C)n2C)cn1,14.66,-51.02
CNCC1CCCN(C(=O)c2cc(F)ccc2C)C1 (stereo not shown),6.998,-0.7604
OCCC1CNCCN1CCCc1ccccc1 (stereo not shown),33.06,13.67
O=C(CCN1CCC(CO)CC1)Nc1ccccc1F,6.89,7.731
CC1CCN(CCCNc2ccc3nnnn3n2)CC1,-6.876,-22.91
COCCN1CCC(CNc2cccc(C)n2)C1 (stereo not shown),31.74,13.73
Nc1nc(SCc2ccccc2F)n[nH]1,12.13,10.8
COc1ccnc(CN2CCCC2CSC)c1OC (stereo not shown),55.01,2.335
NC(=O)C1CCN(C(=O)CN2CCOCC2)CC1,-9.215,-13.67
NCc1cccc(=O)[nH]1,1.977,-0.7348
CCNC(=O)c1ccc(CNC(C)=O)cc1,0.6495,-0.4978
COc1ccc(NCCCO)cc1,43.87,43.83
COc1ccc(S(=O)(=O)N2CCN(C)CC2)c(C)c1C,-4.962,-15.12
[H][C@]12CNC[C@]([H])(CN(S(=O)(=O)c3ccc(OC)cc3)C1)O2,17.86,5.784
CCN1CCC(CNC(=O)Nc2ccc(OC)nc2)C1 (stereo not shown),-1.08,-22.49
O=C1NCCNC1CC1CCCCC1 (stereo not shown),5.398,8.35
NC(=O)C1CCN(CCOc2ccc(F)cc2)CC1,1.795,-9.093
CN(C)c1ncccc1NS(=O)(=O)CCC1CC1,25.23,-2.286
CN(C)C(=O)c1cccc(-c2ccc(C(N)=O)cc2)n1,1.575,-9.073
CCn1c(C)cc(C(=O)Nc2ncccc2O)c1C,35.91,27.6
CC(C)N1CCC(NC(=O)C2=NN(C)C(=O)CC2)CC1,-7.543,-15.9
COc1ccc(F)c(F)c1CN1CCOC(CCO)C1 (stereo not shown),2.046,2.81
Cc1ccc(C(=O)CCN2CCOCC2C(N)=O)cc1 (stereo not shown),-3.874,102.9
CCC(C#N)N1CCC(C(N)=O)CC1 (stereo not shown),16.91,11.32

The values are deposited in ChEMBL (CHEMBL3988442, “University of Dundee, Small-Polar-MMV Screening Library” (2021)).